Assay results published in article PMC5712522 (Nature Communications, 2017).
No constants are given. Whether binding was seen depends on the method and setting. For some assays here: Binding seen in cells or lysates may run through a third protein. Some results given as binding are weak or reduced against the parent protein; the word gives no strength. For some assays here: Where a sequence is shown, tags or fusion partners need not be part of it.

What was measured:
[1] = target: endogenous full-length LIMP-2 in HeLa cells (human (endogenous in HeLa)) (UniProt Q14108); experiment: native gel or EMSA; Native PAGE Bis-Tris gel of cell lysates, immunoblot
[2] = target: endogenous full-length LIMP-2 in HeLa cells (human (endogenous in HeLa)) (UniProt Q14108); experiment: SDS–PAGE (denaturing gel) and immunoblot; cell lysates on denaturing gels, immunoblot
[3] = target: endogenous full-length LIMP-2 in HeLa cells (human (endogenous in HeLa)) (UniProt Q14108); experiment: cross-linking; UV (365 nm, 15 min) cross-linking in HeLa cells labelled 24 h with photo-methionine (1.5 mM) and photo-leucine (3 mM); SDS–PAGE and immunoblot
[4] = target: murine LIMP-2, full-length, heterologously expressed in HeLa cells (LIMP-2-myc; LIMP-2-HA) (murine) (UniProt O35114); experiment: native gel or EMSA; Native PAGE Bis-Tris gel of cell lysates, immunoblot
[5] = target: murine LIMP-2, full-length, heterologously expressed in HeLa cells (LIMP-2-myc; LIMP-2-HA) (murine) (UniProt O35114); experiment: SDS–PAGE (denaturing gel) and immunoblot; cell lysates on denaturing gels, immunoblot
[6] = target: murine LIMP-2, full-length, heterologously expressed in HeLa cells (LIMP-2-myc; LIMP-2-HA) (murine) (UniProt O35114); experiment: cross-linking; UV (365 nm, 15 min) cross-linking in HeLa cells labelled 24 h with photo-methionine (1.5 mM) and photo-leucine (3 mM); SDS–PAGE and immunoblot
[7] = target: murine LIMP-2, full-length, heterologously expressed in HeLa cells (LIMP-2-myc; LIMP-2-HA) (murine) (UniProt O35114); experiment: co-IP; HeLa cells co-transfected with LIMP-2-myc and LIMP-2-HA for 48 h; lysate with anti-myc antibody overnight at 4 °C, magnetic agarose G beads; co-precipitated LIMP-2-HA detected with anti-HA
[8] = target: endogenous LIMP-2 in wild-type mouse embryonic fibroblasts (mouse (endogenous in MEF)) (UniProt O35114); experiment: native gel or EMSA; Native PAGE Bis-Tris gel of cell lysates, immunoblot

B1: endogenous full-length LIMP-2 in HeLa cells (protein, UniProt Q14108 1-478)
chain: MGRCCFYTAGTLSLLLLVTSVTLLVARVFQKAVDQSIEKKIVLRNGTEAFDSWEKPPLPVYTQFYFFNVTNPEEILRGETPRVEEVGPYTYRELRNKANIQFGDNGTTISAVSNKAYVFERDQSVGDPKIDLIRTLNIPVLTVIEWSQVHFLREIIEAMLKAYQQKLFVTHTVDELLWGYKDEILSLIHVFRPDISPYFGLFYEKNGTNDGDYVFLTGEDSYLNFTKIVEWNGKTSLDWWITDKCNMINGTDGDSFHPLITKDEVLYVFPSDFCRSVYITFSDYESVQGLPAFRYKVPAEILANTSDNAGFCIPEGNCLGSGVLNVSICKNGAPIIMSFPHFYQADERFVSAIEGMHPNQEDHETFVDINPLTGIILKAAKRFQINIYVKKLDDFVETGDIRTMVFPVMYLNESVHIDKETASRLKSMINTTLIITNIPYIIMALGVFFGLVFTWLACKGQGSMDEGTADERAPLIRT
binding [1]: binds | binding [2]: binds | binding [3]: binds

B2: murine LIMP-2, full-length, heterologously expressed in HeLa cells (LIMP-2-myc; LIMP-2-HA) (protein, UniProt O35114 1-478)
chain: MGRCCFYTAGTLSLLLLVTSVTLLVARVFQKAVDQTIEKNMVLQNGTKVFNSWEKPPLPVYIQFYFFNVTNPEEILQGEIPLLEEVGPYTYRELRNKANIQFGENGTTISAVTNKAYVFERNQSVGDPNVDLIRTINIPLLTVVDLAQLTLLRELIEAMLKAYQQKLFVIHTVHELLWGYKDEILSLVHIFKPDVSPNFGLFYERNGTNDGEYVFLTGEDNYLNFSKIVEWNGKTSLDWWTTDTCNMINGTDGDSFHPLISKDEVLYLFPSDLCRSVHITFSSFENVEGLPAFRYKVPAEILANTSENAGFCIPEGNCMDSGVLNISICKNGAPIIMSFPHFYQADEKFVSAIKGMHPNKEEHESFVDINPLTGIILRGAKRFQINTYVRKLDDFVETGDIRTMVFPVMYLNESVLIDKETANQLKSVINTTLVVTNIPYIIMALGVFFGLVFTWLACRGQGSMDEGTADERAPLIRT
binding [4]: binds | binding [5]: binds | binding [6]: binds | binding [7]: binds

B3: endogenous LIMP-2 in wild-type mouse embryonic fibroblasts (protein, UniProt O35114 1-478)
chain: B2 chain
binding [8]: binds
